16 sequences from publication PMC12135187, “A role for pH dynamics regulating transcription factor DNA-binding selectivity” can be followed below.

The chains behind the UniProt entries cited, without tags or fusion partners. Residues count along the entry.
UniProt Q08050, 222-360: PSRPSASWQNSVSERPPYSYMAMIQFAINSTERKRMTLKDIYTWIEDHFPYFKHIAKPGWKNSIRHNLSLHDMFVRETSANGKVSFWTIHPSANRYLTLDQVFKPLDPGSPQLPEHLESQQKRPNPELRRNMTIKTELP

Data set [1] deals with T1, FOXC2 DBD WT (UniProt Q99958).
T1 sequence (looked up): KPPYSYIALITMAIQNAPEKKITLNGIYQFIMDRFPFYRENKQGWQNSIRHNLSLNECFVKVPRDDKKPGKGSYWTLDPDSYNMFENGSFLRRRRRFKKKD
The data set is described as follows: SELEX-seq (GST pull-down, four rounds, 16-nt random library). The note with it: pH 7.0; 20 mM HEPES, 140 mM KCl, 0.05 mM TCEP-HCl, pH 7.0, room temperature, 30 min; 2.5 uM GST-FOXC2 DBD, 0.25 uM DNA library; high values mean tight binding; recombinant protein; residues 72-172; protein details: N-terminal GST (pGEX-6P-2); only the motif is given; counted as no binding.

The target in a further data set is FOXM1 DBD WT (UniProt Q08050). The data set is described as follows: fluorescence anisotropy. The note with it: 20 mM HEPES, 140 mM KCl, 0.05 mM TCEP-HCl, pH 7.0 or 7.5 (pH titration 6.8-8.2), room temperature 30 min, 7.5 nM FAM-DNA, recombinant protein, residues 222-360, protein details: N-terminal GST (pGEX-6P-2). (In fluorescence polarisation assays a small probe gives low polarisation when free and higher when bound to something large.)

A further data set concerns the target T2, FOXN1 DBD WT (UniProt O15353).
T2 sequence (looked up): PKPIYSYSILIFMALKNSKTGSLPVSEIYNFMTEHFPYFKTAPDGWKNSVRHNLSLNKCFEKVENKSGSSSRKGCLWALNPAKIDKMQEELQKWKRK
The data set is described as follows: fluorescence anisotropy. The note with it: 20 mM HEPES, 140 mM KCl, 0.05 mM TCEP-HCl, pH 7.0 or 7.5 (pH titration 6.8-8.2), room temperature 30 min, 7.5 nM FAM-DNA, recombinant protein, residues 270-366, protein details: N-terminal GST (pGEX-6P-2).

In data set [2] the target is T1, FOXC2 DBD WT. The data set is described as follows: fluorescence anisotropy. The note with it: 20 mM HEPES, 140 mM KCl, 0.05 mM TCEP-HCl, pH 7.0 or 7.5 (pH titration 6.8-8.2), room temperature 30 min, 7.5 nM FAM-DNA, recombinant protein, residues 72-172, protein details: N-terminal GST (pGEX-6P-2).
The mark [3] stands for this setting: pH 7.5, lower affinity than at pH 7.0, label: 6-FAM.

For some assays here: Where a protein sequence is shown, tags need not be part of it. For some assays here: Construct, isoform or probe ends are uncertain for at least one entry. For some assays here: Negatives hold for the conditions tested. For some assays here: At least one verdict was read from the data and is not stated in words by the source. For some assays here: Weaker means in comparison with the reference protein, sequence or condition of that experiment.

On to AAAAGT (double strand), for which, in the data set with FOXC2 DBD WT [1], the binding signal (relative enrichment) was 0.183.

Consider AAAATT (double strand), for which the binding signal (relative enrichment) in the data set with FOXC2 DBD WT [1] worked out at 0.101.

As for AAATTA (double strand), the binding signal (relative enrichment) with FOXC2 DBD WT [1] was 0.196.

Consider AAATTT (double strand), for which, in the data set with FOXC2 DBD WT [1], the binding signal (relative enrichment) was 0.156.

AATGTA (double strand): in the data set with FOXC2 DBD WT [1], the binding signal (relative enrichment) was found to be 0.193.

For the sequence ACAAAA (double strand), the binding signal (relative enrichment) with FOXC2 DBD WT [1] worked out at 0.157.

Turning to ACAACA (double strand), the binding signal (relative enrichment) with FOXC2 DBD WT [1] was found to be 0.19.

ACAACT (double strand): in the data set with FOXC2 DBD WT [1], the binding signal (relative enrichment) was 0.173.

Regarding AGTTAT (double strand), in the data set with FOXC2 DBD WT [1], the binding signal (relative enrichment) is 0.194.

For the sequence ATTACA (double strand), the binding signal (relative enrichment) with FOXC2 DBD WT [1] was 0.18.

For ATTATA (double strand), the binding signal (relative enrichment) in the data set with FOXC2 DBD WT [1] stood at 0.196.

For the sequence CAACAA (double strand), in the data set with FOXC2 DBD WT [1], the binding signal (relative enrichment) is 0.178.

With CCATAAACAAC (double strand) [FkhP], the binding result with FOXM1 DBD WT (setting [3]), with FOXN1 DBD WT (setting [3]) and in the data set with FOXC2 DBD WT [2] (setting [3]) was “binds more weakly” each time.

Take “CGACGCGACGC (double strand) [FHL 2x repeat]”: the binding result with FOXM1 DBD WT, with FOXN1 DBD WT and with FOXC2 DBD WT [2] was “no binding” in each case.

For the sequence GTTACA (double strand), the binding signal (relative enrichment) in the data set with FOXC2 DBD WT [1] was 0.146.

Regarding TAACAA (double strand), the binding signal (relative enrichment) in the data set with FOXC2 DBD WT [1] came out at 0.165.
